PubChem BioAssay AID493246 – Drosophila RNAi Screening Center, 2011
The deposit covers about 21,000 reagents; this is an unselected part of those that have a named target and a result. In the full data, 429 (2%) got an active call. 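Values are raw and not normalised between plates; calls rest on per-plate z-scores that were not deposited.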 Reagents against one gene are numbered here. A plus sign joins genes that one reagent is predicted to hit. No sequences are given here. Not given: the amount of reagent, the time to read-out.

- Aim: 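Genome-wide search for dsRNAs that reduce cell number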 (primary screen)
- Cell system: Drosophila Kc and S2R+ cells
- Knock-down reagent: long dsRNA against Drosophila genes
- Measurement: 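Cell number per well after knock-down, printed as raw plate values; calls were based on per-plate z-scores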
- Reading the numbers: Kc cell number and S2R+ cell number: higher = more cells remaining
- Call rule: 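Counted as a hit if cell number falls by a z-score of at least 3 within its plate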

predicted target	reagent	Kc cell number, rep 1	Kc cell number, rep 2	S2R+ cell number, rep 1	S2R+ cell number, rep 2	call
CG34028	1	1.27e6	1.48e6	1.09e6	1.08e6	inactive
Spn28B (Serpin 28B)	1	1.52e6	1.59e6	1.05e6	1.15e6	inactive
CG3526	1	1.12e6	1.28e6	1.12e6	1.11e6	inactive
CG3526	2	1.55e6	1.51e6	1.04e6	1.16e6	inactive
side-III (sidestep III)	1	1.39e6	1.52e6	1.23e6	1.31e6	inactive
side-III (sidestep III)	2	1.50e6	1.55e6	1.05e6	1.15e6	inactive
side-III (sidestep III)	3	1.37e6	1.38e6	1.30e6	1.43e6	inactive
Or85d (Odorant receptor 85d)	1	1.42e6	1.58e6	1.25e6	1.36e6	inactive
Dd (Dullard)	1	1.76e6	1.74e6	1.12e6	1.22e6	inactive
Cox17 (Cytochrome c oxidase copper chaperone COX17)	1	1.79e6	1.76e6	1.16e6	1.30e6	inactive
CG13085	1	1.45e6	1.61e6	1.33e6	3.46e5	inactive
sm (smooth)	1	5.45e5		7.84e5		inactive
sm (smooth)	2	1.29e6	1.30e6	1.09e6	1.16e6	inactive
CG14492	1	1.54e6	1.60e6	1.21e6	1.31e6	inactive
Sse (Separase)	1	1.36e6	1.46e6	8.19e5	7.06e5	inactive
alpha-Est8 (alpha-Esterase-8)	1	1.49e6	1.65e6	1.24e6	1.33e6	inactive
Msp300 (Muscle-specific protein 300 kDa)	1	1.49e6	1.54e6	1.11e6	1.24e6	inactive
Msp300 (Muscle-specific protein 300 kDa)	2	1.62e6	1.72e6	1.16e6	1.28e6	inactive
Msp300 (Muscle-specific protein 300 kDa)	3	1.57e6	1.63e6	1.11e6	1.27e6	inactive
Msp300 (Muscle-specific protein 300 kDa)	4	1.55e6	1.59e6	1.12e6	1.28e6	inactive
Msp300 (Muscle-specific protein 300 kDa)	5	1.73e6	1.50e6	1.16e6	1.33e6	inactive
Msp300 (Muscle-specific protein 300 kDa)	6	1.17e6	1.22e6	6.01e5	6.75e5	inactive
Msp300 (Muscle-specific protein 300 kDa)	7	1.65e6	1.54e6	1.16e6	1.39e6	inactive
CG30431	1	1.36e6	1.40e6	1.10e6	1.17e6	inactive
CG30431	2	1.84e6	1.93e6	1.35e6	1.31e6	inactive
Rala (Ras-like protein A)	1	1.57e6	1.54e6	1.03e6	1.18e6	inactive
sw + Sdic4 + Sdic3 + 2 more	1	1.54e6	1.58e6	1.07e6	1.17e6	inactive
ric8b + ric8a	1	1.51e6	1.52e6	1.03e6	1.14e6	inactive
CG6793	1	1.37e6	1.40e6	1.24e6	1.34e6	inactive
CG18178	1	1.48e6	1.59e6	1.39e6	1.28e6	inactive
atk (artichoke)	1	1.36e6	1.32e6	9.93e5	1.17e6	inactive
atk (artichoke)	2	1.44e6	1.75e6	1.24e6	1.35e6	inactive
IntS3 (Integrator 3)	1	1.33e6	1.42e6	9.35e5	1.02e6	inactive
CG42594	1	3.81e5	4.83e5	4.46e5	5.72e5	active
CG42594	2	1.58e6	1.54e6	1.09e6	1.22e6	inactive
CG15025	1	1.38e6	1.32e6	1.02e6	1.13e6	inactive
CG8492	1	1.44e6	1.68e6	1.27e6	1.26e6	inactive
msb1l	1	1.46e6	1.60e6	1.35e6	1.38e6	inactive
Sam-S (S-adenosylmethionine Synthetase)	1	1.27e6	1.24e6	5.95e5	5.31e5	inactive
TbCMF46	1	1.63e6	1.58e6	1.33e6	1.45e6	inactive
CG10307	1	9.92e5	1.14e6	8.31e5	7.30e5	inactive
CG12725	1	1.89e6	1.83e6	1.15e6	1.27e6	inactive
CG17564	1	1.67e6	1.80e6	1.40e6	4.15e5	inactive
CG13589	1	1.93e6	1.92e6	1.30e6	1.38e6	inactive
CG1724	1	1.56e6	1.55e6	1.15e6	1.38e6	inactive
CG14342	1	1.52e6	1.56e6	1.01e6	1.21e6	inactive
CG3376	1	1.62e6	1.74e6	1.16e6	1.10e6	inactive
bip1	1	1.37e6	1.47e6	1.35e6	1.24e6	inactive
CG5246	1	1.27e6	1.44e6	1.04e6	1.18e6	inactive
Ubqn (Ubiquilin)	1	1.64e6	1.67e6	1.04e6	1.18e6	inactive
CG17732	1	1.44e6	1.43e6	1.36e6	1.49e6	inactive
CG13829	1	1.45e6	1.51e6	9.68e5	1.09e6	inactive
Prosalpha4T2 (Proteasome alpha4 subunit, Testis-specific 2)	1	1.53e6	1.55e6	1.27e6	1.48e6	inactive
CG7906	1	1.54e6	1.54e6	1.36e6	1.34e6	inactive
tHMG1 (testis-enriched HMG-box-containing protein 1)	1	1.24e6	1.22e6	1.03e6	8.96e5	inactive
CG33230	1	1.59e6	1.61e6	1.18e6	1.06e6	inactive
Prat2 (Phosphoribosylamidotransferase 2)	1	1.38e6	1.49e6	1.19e6	1.13e6	inactive
t-cup (tetleys-cup)	1	1.60e6	1.71e6	1.15e6	1.29e6	inactive
CG6873	1	1.56e6	1.63e6	8.45e5	9.74e5	inactive
Rilpl (Rab interacting lysosomal protein like)	1	5.15e5		7.95e5		inactive
CG11619	1	1.71e6	1.82e6	1.31e6	1.51e6	inactive
yip3 (yippee interacting protein 3)	1	1.60e6	1.61e6	1.22e6	1.39e6	inactive
CG1537	1	1.56e6	1.46e6	1.06e6	1.15e6	inactive
Alg10 (ALG10 alpha-1,2-glucosyltransferase)	1	1.35e6	1.47e6	1.40e6	1.50e6	inactive
ey (eyeless)	1	1.38e6	1.41e6	9.86e5	1.10e6	inactive
CG6000	1	1.43e6	1.42e6	9.65e5	1.06e6	inactive
row (relative of woc)	1	1.06e6	1.21e6	4.88e5	5.01e5	active
row (relative of woc)	2	1.76e6	1.83e6	1.16e6	1.31e6	inactive
Manf (Mesencephalic astrocyte-derived neurotrophic factor)	1	1.56e6	1.62e6	1.12e6	1.19e6	inactive
APC10 (Anaphase Promoting Complex subunit 10)	1	1.59e6	1.64e6	1.12e6	1.25e6	inactive
CG12516	1	1.50e6	1.47e6	9.70e5	1.16e6	inactive
CG42362 + CG42363	1	1.23e6	1.16e6	9.93e5	8.90e5	inactive
temp (tempura)	1	4.84e5		8.55e5		inactive
CG18537	1	1.55e6	1.56e6	1.17e6	1.25e6	inactive
Ir68a (Ionotropic receptor 68a)	1	1.31e6	1.24e6	1.22e6	1.35e6	inactive
